Assay results as given in the supplement of paper PMC10060354, “Discovery of a small molecule ligand of FRS2 that inhibits invasion and tumor growth” (Cellular Oncology, 2022).

By UniProt entry, the sequences of proteins in these tests, tags left out. Where a name states a change or a piece, a line headed by the entry shows the natural chain unless it says otherwise.
UniProt Q96PD2: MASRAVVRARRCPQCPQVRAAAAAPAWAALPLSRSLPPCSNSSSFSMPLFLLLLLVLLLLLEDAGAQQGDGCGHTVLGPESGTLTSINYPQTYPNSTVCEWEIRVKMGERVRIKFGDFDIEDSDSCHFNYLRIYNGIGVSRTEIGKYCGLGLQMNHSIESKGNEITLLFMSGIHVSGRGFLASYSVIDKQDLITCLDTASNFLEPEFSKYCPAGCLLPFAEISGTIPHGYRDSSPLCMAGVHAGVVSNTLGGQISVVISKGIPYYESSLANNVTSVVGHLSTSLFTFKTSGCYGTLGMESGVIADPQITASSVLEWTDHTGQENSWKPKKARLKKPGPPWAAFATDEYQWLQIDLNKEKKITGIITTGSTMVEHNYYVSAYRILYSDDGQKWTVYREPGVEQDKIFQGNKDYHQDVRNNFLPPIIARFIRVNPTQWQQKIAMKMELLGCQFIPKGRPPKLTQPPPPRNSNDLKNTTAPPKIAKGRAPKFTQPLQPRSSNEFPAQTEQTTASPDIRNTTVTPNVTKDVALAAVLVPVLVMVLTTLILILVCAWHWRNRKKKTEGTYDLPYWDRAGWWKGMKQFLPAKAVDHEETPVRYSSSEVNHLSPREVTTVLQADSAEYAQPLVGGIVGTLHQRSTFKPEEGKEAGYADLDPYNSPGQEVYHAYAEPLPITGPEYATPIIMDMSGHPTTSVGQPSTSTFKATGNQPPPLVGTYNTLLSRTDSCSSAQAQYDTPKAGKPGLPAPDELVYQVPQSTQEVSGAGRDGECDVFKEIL
UniProt P11277, whole entry: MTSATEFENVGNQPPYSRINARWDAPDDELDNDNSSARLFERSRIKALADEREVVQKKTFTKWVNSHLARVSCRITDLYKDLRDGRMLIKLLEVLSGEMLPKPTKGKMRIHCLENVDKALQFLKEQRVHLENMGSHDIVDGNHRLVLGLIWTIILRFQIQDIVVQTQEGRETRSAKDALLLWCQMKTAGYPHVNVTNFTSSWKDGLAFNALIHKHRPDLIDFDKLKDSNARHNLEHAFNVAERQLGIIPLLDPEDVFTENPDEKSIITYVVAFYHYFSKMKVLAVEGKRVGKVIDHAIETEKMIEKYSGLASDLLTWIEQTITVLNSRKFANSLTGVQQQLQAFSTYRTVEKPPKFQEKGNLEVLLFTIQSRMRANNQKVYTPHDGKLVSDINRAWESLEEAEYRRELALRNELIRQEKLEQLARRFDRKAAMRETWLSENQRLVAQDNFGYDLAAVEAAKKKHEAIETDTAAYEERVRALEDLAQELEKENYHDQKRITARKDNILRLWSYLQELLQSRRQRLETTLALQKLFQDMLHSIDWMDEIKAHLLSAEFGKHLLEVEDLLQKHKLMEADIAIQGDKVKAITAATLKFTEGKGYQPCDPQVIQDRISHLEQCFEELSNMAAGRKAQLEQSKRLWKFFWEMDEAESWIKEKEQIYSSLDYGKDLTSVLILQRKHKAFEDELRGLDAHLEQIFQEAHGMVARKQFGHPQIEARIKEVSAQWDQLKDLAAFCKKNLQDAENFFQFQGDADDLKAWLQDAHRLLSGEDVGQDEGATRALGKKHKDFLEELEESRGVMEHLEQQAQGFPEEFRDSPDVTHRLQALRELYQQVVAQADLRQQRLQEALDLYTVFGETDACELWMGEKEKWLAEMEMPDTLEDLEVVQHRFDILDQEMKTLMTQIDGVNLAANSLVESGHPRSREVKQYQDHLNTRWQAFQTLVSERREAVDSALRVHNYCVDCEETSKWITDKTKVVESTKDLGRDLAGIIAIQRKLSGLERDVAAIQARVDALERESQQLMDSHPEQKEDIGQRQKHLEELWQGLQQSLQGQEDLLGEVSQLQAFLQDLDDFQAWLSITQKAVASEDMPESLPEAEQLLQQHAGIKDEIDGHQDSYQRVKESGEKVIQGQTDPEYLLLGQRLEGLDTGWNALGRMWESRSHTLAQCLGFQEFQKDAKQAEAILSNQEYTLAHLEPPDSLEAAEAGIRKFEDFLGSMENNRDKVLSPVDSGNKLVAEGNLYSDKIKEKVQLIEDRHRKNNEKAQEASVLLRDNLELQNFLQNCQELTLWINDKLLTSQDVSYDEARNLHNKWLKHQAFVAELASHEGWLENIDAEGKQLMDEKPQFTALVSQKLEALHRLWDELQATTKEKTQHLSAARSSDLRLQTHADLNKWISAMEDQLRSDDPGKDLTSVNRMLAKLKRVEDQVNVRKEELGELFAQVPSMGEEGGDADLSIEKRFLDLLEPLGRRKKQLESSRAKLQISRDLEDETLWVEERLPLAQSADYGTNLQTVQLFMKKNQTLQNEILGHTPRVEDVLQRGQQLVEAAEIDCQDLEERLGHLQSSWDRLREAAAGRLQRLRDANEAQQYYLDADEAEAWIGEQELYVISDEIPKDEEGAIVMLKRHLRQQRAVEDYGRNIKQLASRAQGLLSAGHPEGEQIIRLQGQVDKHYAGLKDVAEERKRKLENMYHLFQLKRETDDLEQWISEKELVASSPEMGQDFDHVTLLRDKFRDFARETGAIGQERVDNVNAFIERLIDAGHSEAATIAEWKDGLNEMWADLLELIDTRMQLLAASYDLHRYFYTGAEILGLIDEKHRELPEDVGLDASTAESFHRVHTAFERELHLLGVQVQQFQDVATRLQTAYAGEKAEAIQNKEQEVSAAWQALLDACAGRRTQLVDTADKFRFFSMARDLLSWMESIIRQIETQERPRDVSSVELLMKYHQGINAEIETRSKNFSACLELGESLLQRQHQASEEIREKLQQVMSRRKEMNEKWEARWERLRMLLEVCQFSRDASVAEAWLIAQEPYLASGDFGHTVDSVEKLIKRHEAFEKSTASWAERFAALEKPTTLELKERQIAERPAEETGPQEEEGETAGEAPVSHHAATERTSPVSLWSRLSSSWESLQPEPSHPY
UniProt O76024: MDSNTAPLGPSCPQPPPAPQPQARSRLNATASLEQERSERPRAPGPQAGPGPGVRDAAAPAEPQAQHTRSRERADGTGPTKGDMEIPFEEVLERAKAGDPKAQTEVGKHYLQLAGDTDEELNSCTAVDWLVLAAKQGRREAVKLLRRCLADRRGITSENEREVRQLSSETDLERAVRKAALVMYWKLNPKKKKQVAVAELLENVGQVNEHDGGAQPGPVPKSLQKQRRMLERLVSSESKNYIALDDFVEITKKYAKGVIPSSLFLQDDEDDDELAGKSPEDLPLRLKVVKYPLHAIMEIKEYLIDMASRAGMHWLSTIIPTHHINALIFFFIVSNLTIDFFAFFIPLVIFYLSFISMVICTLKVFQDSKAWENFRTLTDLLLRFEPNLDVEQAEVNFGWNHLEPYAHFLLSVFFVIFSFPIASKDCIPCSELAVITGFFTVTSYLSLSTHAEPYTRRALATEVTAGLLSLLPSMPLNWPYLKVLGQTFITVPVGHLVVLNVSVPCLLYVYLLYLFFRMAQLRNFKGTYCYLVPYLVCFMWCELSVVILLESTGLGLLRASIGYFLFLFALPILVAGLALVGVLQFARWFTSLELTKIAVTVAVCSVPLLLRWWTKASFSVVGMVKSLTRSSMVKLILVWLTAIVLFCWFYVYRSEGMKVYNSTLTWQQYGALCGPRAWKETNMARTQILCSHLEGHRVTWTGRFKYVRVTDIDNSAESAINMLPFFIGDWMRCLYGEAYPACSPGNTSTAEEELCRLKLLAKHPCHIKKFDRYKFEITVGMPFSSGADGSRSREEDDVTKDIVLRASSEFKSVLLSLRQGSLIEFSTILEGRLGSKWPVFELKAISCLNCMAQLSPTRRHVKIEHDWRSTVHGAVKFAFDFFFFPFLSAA
UniProt Q9UHJ6: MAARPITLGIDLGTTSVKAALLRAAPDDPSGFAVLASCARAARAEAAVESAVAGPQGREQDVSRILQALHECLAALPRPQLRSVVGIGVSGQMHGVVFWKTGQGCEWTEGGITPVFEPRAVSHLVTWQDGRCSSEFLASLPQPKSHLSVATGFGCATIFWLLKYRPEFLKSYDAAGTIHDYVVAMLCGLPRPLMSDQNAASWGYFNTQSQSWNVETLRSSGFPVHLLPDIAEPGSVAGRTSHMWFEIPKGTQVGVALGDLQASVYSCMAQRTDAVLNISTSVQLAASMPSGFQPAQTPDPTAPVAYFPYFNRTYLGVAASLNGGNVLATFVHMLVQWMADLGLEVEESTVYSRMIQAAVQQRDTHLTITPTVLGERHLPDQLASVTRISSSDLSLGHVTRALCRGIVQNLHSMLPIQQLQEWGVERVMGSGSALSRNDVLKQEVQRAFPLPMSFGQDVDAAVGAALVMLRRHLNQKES
UniProt P56937: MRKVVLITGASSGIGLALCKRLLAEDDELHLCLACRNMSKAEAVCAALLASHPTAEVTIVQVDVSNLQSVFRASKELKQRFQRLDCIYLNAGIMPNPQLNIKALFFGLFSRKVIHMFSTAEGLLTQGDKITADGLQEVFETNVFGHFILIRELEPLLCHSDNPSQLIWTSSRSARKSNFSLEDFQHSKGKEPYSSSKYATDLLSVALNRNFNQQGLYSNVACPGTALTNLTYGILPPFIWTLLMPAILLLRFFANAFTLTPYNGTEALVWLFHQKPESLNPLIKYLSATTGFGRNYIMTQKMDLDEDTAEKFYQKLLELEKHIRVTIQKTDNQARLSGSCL
UniProt O00217, whole entry: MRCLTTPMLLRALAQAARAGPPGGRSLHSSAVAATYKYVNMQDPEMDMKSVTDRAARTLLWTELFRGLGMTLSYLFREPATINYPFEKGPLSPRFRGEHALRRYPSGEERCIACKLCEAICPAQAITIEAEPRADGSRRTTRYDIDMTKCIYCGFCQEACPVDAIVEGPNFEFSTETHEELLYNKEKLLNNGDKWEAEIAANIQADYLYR
UniProt Q9BXT2: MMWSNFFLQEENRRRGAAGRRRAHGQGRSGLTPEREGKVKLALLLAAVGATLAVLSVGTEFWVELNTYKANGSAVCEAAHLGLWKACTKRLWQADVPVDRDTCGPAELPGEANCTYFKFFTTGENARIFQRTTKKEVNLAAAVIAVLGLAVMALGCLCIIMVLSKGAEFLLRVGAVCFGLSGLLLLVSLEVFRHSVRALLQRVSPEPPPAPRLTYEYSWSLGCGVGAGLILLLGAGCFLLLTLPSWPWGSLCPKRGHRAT
UniProt Q5SWX8: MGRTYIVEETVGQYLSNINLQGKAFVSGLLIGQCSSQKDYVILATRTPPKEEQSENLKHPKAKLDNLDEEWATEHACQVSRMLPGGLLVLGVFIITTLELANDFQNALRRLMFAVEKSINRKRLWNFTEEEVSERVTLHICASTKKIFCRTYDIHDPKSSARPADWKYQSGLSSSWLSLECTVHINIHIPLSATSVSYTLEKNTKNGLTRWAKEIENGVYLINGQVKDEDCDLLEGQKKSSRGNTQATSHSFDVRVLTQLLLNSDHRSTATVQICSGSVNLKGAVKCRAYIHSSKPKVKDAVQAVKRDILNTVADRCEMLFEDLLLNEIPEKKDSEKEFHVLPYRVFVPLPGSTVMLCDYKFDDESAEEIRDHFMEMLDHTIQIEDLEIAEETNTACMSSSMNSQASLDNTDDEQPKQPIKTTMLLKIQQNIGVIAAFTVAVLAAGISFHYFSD
UniProt Q16637, whole entry, looked up: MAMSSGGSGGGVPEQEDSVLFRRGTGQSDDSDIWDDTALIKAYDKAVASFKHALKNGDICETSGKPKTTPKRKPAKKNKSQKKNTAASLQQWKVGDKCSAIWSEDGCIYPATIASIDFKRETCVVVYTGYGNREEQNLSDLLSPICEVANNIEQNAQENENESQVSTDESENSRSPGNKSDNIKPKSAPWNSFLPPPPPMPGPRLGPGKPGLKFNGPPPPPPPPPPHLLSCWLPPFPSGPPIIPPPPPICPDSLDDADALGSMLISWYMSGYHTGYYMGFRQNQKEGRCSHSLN
UniProt Q02338: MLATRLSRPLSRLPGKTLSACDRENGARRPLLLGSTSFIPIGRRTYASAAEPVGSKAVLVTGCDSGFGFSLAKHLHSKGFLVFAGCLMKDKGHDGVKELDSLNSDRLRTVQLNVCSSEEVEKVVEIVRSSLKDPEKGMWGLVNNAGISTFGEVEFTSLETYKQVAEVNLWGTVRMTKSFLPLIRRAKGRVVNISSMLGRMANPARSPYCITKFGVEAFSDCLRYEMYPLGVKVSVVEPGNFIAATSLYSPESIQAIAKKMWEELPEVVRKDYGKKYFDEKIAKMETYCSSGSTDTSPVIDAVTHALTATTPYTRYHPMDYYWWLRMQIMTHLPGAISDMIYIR
UniProt P49366: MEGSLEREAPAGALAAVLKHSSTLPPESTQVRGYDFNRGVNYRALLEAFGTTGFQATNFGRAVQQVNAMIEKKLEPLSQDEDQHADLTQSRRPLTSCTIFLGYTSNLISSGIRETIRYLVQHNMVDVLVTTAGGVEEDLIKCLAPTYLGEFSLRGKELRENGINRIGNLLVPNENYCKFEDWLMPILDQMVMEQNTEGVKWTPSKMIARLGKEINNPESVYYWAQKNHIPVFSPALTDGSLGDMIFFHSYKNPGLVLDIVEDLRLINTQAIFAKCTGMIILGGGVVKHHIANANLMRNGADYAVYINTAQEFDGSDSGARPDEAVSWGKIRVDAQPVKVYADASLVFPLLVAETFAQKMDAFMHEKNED

Compound: [O-][N+](C(C1=C(C(O)=C2)NC(C(C=C3)=CC=C3Cl)C4C1C=CC4)=C2Cl)=O
Experiment: melting temperature shift (compound 7 minus DMSO); higher = compound stabilises the protein
Settings: 10 µM
Procedure: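 Thermal proteome profiling (TMT mass spectrometry) in intact DAOY medulloblastoma cells or DAOY lysates treated with 10 µM compound 7 or DMSO, heated at 10 temperatures from 40.5 to 73.8 °C for 3 min. Melting curves were fitted with the Bioconductor TPP package, and the melting point difference between compound and vehicle is reported per protein (single curve per condition).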

[1] = system: DAOY cell lysate, treatment time: 20 min, 4 °C
[2] = system: intact DAOY cells, treatment time: 90 min, 37 °C

Target	melting temperature shift [1]	melting temperature shift [2]
ETS1 (UniProt P14921)	-1.76 °C	-3.78 °C
NDUFA7 (UniProt O95182)	0.716 °C	-0.22 °C
FUS (UniProt P35637)	4.49 °C	–
ACSF3 (UniProt Q4G176)	-1.94 °C	–
UniProt A8MUU1	–	-4.9 °C
UniProt Q3ZCM7	–	0.26 °C
CCDC88A (UniProt Q3V6T2)	-0.0396 °C	–
RFK (UniProt Q969G6)	0.587 °C	-2.18 °C
ELAVL1 (UniProt Q15717)	0.727 °C	-0.582 °C
DCBLD2 (UniProt Q96PD2)	-2.79 °C	–
TRAF2 (UniProt Q12933)	-0.0202 °C	0.244 °C
UniProt Q8N9V7	–	-0.488 °C
APPL2 (UniProt Q8NEU8)	0.822 °C	-0.341 °C
CLGN (UniProt O14967)	2.59 °C	0.41 °C
CPOX (UniProt P36551)	3.03 °C	2.69 °C
PEBP1 (UniProt P30086)	-0.789 °C	-0.77 °C
ATRIP (UniProt Q8WXE1)	1.52 °C	0.0796 °C
BCAS2 (UniProt O75934)	-0.236 °C	1.6 °C
UniProt P11277	–	0.7 °C
UniProt Q9HAP6	–	0.185 °C
WFS1 (UniProt O76024)	0.407 °C	-0.807 °C
UniProt P54840	–	-0.188 °C
UniProt Q9UHJ6	-0.975 °C	1.01 °C

Target	melting temperature shift [1]	melting temperature shift [2]
CFL1 (UniProt P23528)	-1.35 °C	1.2 °C
COPS3 (UniProt Q9UNS2)	–	0.0929 °C
RAB18 (UniProt Q9NP72)	0.396 °C	-1.65 °C
TRIM33 (UniProt Q9UPN9)	-0.0236 °C	-0.177 °C
TRUB1 (UniProt Q8WWH5)	-0.871 °C	1.37 °C
XPO7 (UniProt Q9UIA9)	-0.849 °C	0.187 °C
RRM1 (UniProt P23921)	-0.454 °C	-0.622 °C
RPS21 (UniProt P63220)	0.15 °C	0.343 °C
KIAA1468 (UniProt Q9P260)	-0.579 °C	-0.542 °C
POLA1 (UniProt P09884)	0.0144 °C	0.589 °C
UniProt Q8N5C6	1.18 °C	–
CECR5 (UniProt Q9BXW7)	1.61 °C	-0.279 °C
MAP3K7 (UniProt O43318)	-0.685 °C	-1.45 °C
HPCAL1 (UniProt P37235)	1.35 °C	–
UniProt P45877	-0.0929 °C	1.55 °C
PDCD10 (UniProt Q9BUL8)	-0.668 °C	-0.806 °C
HSD17B7 (UniProt P56937)	–	0.749 °C
NDUFS8 (UniProt O00217)	0.297 °C	0.109 °C
UniProt Q9UNH6	0.242 °C	-1.3 °C
BCS1L (UniProt Q9Y276)	0.912 °C	-0.567 °C
UniProt Q13523	-0.273 °C	-0.972 °C
ITGB5 (UniProt P18084)	0.426 °C	-1.21 °C
RAE1 (UniProt P78406)	-0.245 °C	1.01 °C

Part of the list above, with each value named:
TRIM33 (UniProt Q9UPN9)
  melting temperature shift [1] = -0.0236 °C
  melting temperature shift [2] = -0.177 °C
PDCD10 (UniProt Q9BUL8)
  melting temperature shift [1] = -0.668 °C
  melting temperature shift [2] = -0.806 °C

The list goes on:

Target	melting temperature shift [1]	melting temperature shift [2]
MICAL3 (UniProt Q7RTP6)	1.54 °C	0.332 °C
XRCC5 (UniProt P13010)	-0.39 °C	-0.65 °C
UniProt O76075	–	-1.2 °C
ELOVL5 (UniProt Q9NYP7)	0.233 °C	-0.867 °C
UniProt Q9BXT2	–	0.707 °C
UniProt Q2PPJ7	–	-0.283 °C
UniProt Q5XKP0	0.721 °C	-2.05 °C
UniProt Q96I36	0.929 °C	–
MRPS28 (UniProt Q9Y2Q9)	0.841 °C	-0.687 °C
PRC1 (UniProt O43663)	0.409 °C	-1.24 °C
VAPB (UniProt O95292)	1.15 °C	-0.55 °C
FCHO2 (UniProt Q0JRZ9)	-0.825 °C	-0.00167 °C
ODR4 (UniProt Q5SWX8)	-1.52 °C	-1.22 °C
SMN1 (UniProt Q16637)	0.261 °C	–
NKIRAS2 (UniProt Q9NYR9)	0.27 °C	–
UniProt Q14168	0.497 °C	–
UniProt P49675	-2.95 °C	-0.523 °C
UniProt P0DJD0	–	-1.81 °C
UniProt Q14156	0.642 °C	–
UFC1 (UniProt Q9Y3C8)	0.364 °C	0.491 °C
MRPS25 (UniProt P82663)	-1.34 °C	0.221 °C
UniProt A6NNP5	–	1.63 °C
UniProt Q15836	1.68 °C	–

Target	melting temperature shift [1]	melting temperature shift [2]
UniProt P35749	–	-2.87 °C
UniProt Q9H2J7	1.31 °C	0.516 °C
NDUFV1 (UniProt P49821)	0.806 °C	-0.796 °C
UniProt P04350	-0.431 °C	-0.167 °C
MAPKAPK3 (UniProt Q16644)	-0.266 °C	-0.164 °C
UniProt Q9H115	–	0.208 °C
ATAD3B (UniProt Q5T9A4)	2.01 °C	-0.203 °C
PMS2 (UniProt P54278)	–	-0.422 °C
UniProt P42166	0.766 °C	-0.783 °C
ARPC4 (UniProt P59998)	-1.49 °C	0.507 °C
PDE6D (UniProt O43924)	0.809 °C	1.36 °C
CPS1 (UniProt P31327)	-3.07 °C	-1.89 °C
PARP9 (UniProt Q8IXQ6)	-1.83 °C	–
MARK3 (UniProt P27448)	1.03 °C	0.578 °C
UniProt P98175	0.304 °C	-1.25 °C
GATAD2A (UniProt Q86YP4)	-0.255 °C	0.0276 °C
SETD7 (UniProt Q8WTS6)	0.56 °C	0.271 °C
CHKA (UniProt P35790)	0.178 °C	-2.33 °C
CAPG (UniProt P40121)	0.25 °C	0.65 °C
BNIP2 (UniProt Q12982)	1.06 °C	-0.493 °C
UniProt P27986	-1.79 °C	-0.863 °C
HBS1L (UniProt Q9Y450)	-0.101 °C	-0.377 °C
C7ORF50 (UniProt Q9BRJ6)	0.226 °C	1.42 °C

Target	melting temperature shift [1]	melting temperature shift [2]
GOT2 (UniProt P00505)	–	-0.412 °C
MSH2 (UniProt P43246)	-0.605 °C	-0.264 °C
SPRYD7 (UniProt Q5W111)	0.872 °C	-0.678 °C
A0A0U1RRI6, A0A0U1RRI6	–	-0.554 °C
LARP1 (UniProt Q6PKG0)	-0.372 °C	-0.242 °C
EEF1B2 (UniProt P24534)	–	0.245 °C
PPP1R11 (UniProt O60927)	-1.23 °C	–
UniProt Q02338	0.799 °C	0.963 °C
UniProt Q8WXF0	–	0.114 °C
DHPS (UniProt P49366)	-0.0331 °C	1.29 °C
HADHB (UniProt P55084)	0.858 °C	0.314 °C
PDIA5 (UniProt Q14554)	0.701 °C	-0.929 °C
MYH9 (UniProt P35579)	-0.416 °C	-0.6 °C
ANKRD44 (UniProt Q8N8A2)	-1.09 °C	-0.0689 °C
UniProt O95864	2.12 °C	-1.29 °C
MPRIP (UniProt Q6WCQ1)	-0.176 °C	0.393 °C
FTO (UniProt Q9C0B1)	-0.132 °C	-0.825 °C
DDR2 (UniProt Q16832)	-1.23 °C	0.0672 °C
UniProt P25098	-1.68 °C	0.438 °C
NOL7 (UniProt Q9UMY1)	1.19 °C	-0.025 °C
FKBP8 (UniProt Q14318)	0.783 °C	-0.48 °C
UniProt A6NKT7	–	0.0249 °C
SNX15 (UniProt Q9NRS6)	2.02 °C	–

Many values rest on one well or one pass, so single values are uncertain.
